According to the supplement of paper PMC12823440, “Inhibitors supercharge kinase turnover through native proteolytic circuits” (Nature, 2025):
This is one part of the list. Hit calls seldom repeat between salt and free forms of one compound.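 In K562 cells expressing nanoluciferase-fused kinases, luminescence was recorded at 4 h intervals between 2 and 18 h, normalized as percent of control with DMSO at 100% and a positive control at 0%. A significant (2 sigma) signal drop marks a time point as decreased. The authors' rule for a hit is not shown and takes in more than the number of time points.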

By UniProt entry, the sequences of proteins in these tests, tags left out.
UniProt P29317, whole entry: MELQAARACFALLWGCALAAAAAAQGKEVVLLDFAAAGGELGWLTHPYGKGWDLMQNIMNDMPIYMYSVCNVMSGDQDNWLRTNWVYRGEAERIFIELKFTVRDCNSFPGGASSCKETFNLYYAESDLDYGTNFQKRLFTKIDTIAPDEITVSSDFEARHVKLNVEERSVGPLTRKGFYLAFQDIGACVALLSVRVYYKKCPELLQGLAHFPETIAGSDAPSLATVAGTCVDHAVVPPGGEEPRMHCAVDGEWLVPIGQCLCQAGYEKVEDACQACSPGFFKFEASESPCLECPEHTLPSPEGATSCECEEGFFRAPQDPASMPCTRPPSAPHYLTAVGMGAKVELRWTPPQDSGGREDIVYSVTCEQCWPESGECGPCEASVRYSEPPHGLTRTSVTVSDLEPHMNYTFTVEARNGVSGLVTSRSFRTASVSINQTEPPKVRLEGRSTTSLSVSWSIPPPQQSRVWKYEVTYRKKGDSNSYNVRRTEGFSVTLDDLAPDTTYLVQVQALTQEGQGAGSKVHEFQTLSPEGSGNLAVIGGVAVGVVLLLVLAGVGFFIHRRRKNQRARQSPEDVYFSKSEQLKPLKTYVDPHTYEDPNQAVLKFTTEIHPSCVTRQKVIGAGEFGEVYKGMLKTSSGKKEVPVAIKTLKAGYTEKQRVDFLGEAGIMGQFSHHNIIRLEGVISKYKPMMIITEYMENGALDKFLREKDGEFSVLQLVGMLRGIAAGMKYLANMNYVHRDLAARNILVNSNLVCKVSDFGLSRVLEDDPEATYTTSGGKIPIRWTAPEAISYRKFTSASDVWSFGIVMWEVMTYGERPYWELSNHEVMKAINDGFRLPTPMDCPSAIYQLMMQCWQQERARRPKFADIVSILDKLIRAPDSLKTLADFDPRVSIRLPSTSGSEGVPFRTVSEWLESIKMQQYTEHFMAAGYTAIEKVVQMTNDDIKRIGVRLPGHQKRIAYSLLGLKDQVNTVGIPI

target: EPHA2 (UniProt P29317); test: kinase-Nluc reporter destabilization hit call (1 = scored as downregulated) (binary); higher = compound decreases kinase abundance; settings: K562; 2-18 h

kinase-Nluc reporter destabilization hit call, inactive:
CC(C)Cn1ncc2cc(Oc3ccc(F)cc3F)c(C(=O)NCCN(C)C)cc21 [p38α inhibitor 1] (10 µM) 0
CNc1cc2c(Nc3cccc(Br)c3)ncnc2cn1 (10 µM) 0
CN1C(=O)[C@@H](NC(=O)c2cc(Cc3ccccc3)on2)COc2ccccc21 (10 µM) 0
CC(C1CC1)n1cnc2c(NCc3cccc(C(F)(F)F)c3)nc(NCCN(C)C)nc21 (centres undefined) (10 µM) 0
Cc1n[nH]c2ncc(C(=O)N3CCC[C@H]3c3ccc(Cl)cc3)cc12 (10 µM) 0
COc1ccc(Br)c(C=O)c1O [6-Bromo-2-hydroxy-3-methoxybenzaldehyde] (10 µM) 0
Oc1ccc(-c2cnc3ccc(NCc4ccco4)nn23)cc1 [IRAK inhibitor 2] (2.5 µM) 0
C[C@H](Nc1cc2c(-c3ccc4c(c3)OCO4)noc2cn1)c1ccccc1 (10 µM) 0
Nc1ccc(C(=O)Nc2cccc(-c3nc(N4CCOCC4)c4oc5ncccc5c4n3)c2)cn1 (10 µM) 0
CCOC(=O)c1c(N2CCc3ccc(OC)cc3C2)oc(C=C2C=Nc3ncccc32)c1O (10 µM) 0
Cc1ncc(-c2cc(F)c(O)c(F)c2)cc1-c1cc(F)c(O)c(F)c1 (10 µM) 0
N=C(NC(=N)N1CCCC1)Nc1ccc(OC(F)(F)F)cc1 (10 µM) 0
CC1(C)CN(C(=O)c2ccc(-c3cccc4nc(NC(=O)C5CC5)nn34)cc2)C1 [Solcitinib] (10 µM) 0
COc1c(O)cc(O)c2c(=O)cc(-c3ccccc3)oc12 [Wogonin] (10 µM) 0
O=C(NC[C@H](O)CO)c1ccncc1Nc1ccc(I)cc1F [Pimasertib] (10 µM) 0
N#Cc1cnc(Nc2cc(NC[C@H]3CNCCO3)c(C(F)(F)F)cn2)cn1 (10 µM) 0
CCNC(=O)Nc1ccc(-c2nc3c(c(N4CCOC[C@@H]4C)n2)CCN(C2COC2)C3)cc1 (2.5 µM) 0
COc1cc2ncnc(Nc3cc(Br)c(O)c(Br)c3)c2cc1OC (2.5 µM) 0
Nc1ccc(-c2nc3ccc(-c4nc5ccc(N)cc5[nH]4)cc3[nH]2)cc1 (10 µM) 0
CCCCC(=O)OCC(=O)[C@]1(O)Cc2c(O)c3c(c(O)c2[C@@H](O[C@H]2C[C@H](NC(=O)C(F)(F)F)[C@H](O)[C@H](C)O2)C1)C(=O)c1c(OC)cccc1C3=O [Valrubicin] (10 µM) 0
CCOC(=O)c1c(Nc2ccccc2Cl)oc(/C=C2\C=Nc3ncccc32)c1O (10 µM) 0
Nc1[nH]nc2nnc(-c3c(-c4ccccc4)nn4ccccc34)cc12 (10 µM) 0
COc1cc2nc(NC3CC3)nc(NC3CCN(C(C)C)CC3)c2cc1OC (10 µM) 0
S=C(NCc1ccc2c(c1)OCO2)N1CCN(c2ncnc3c2oc2ccccc23)CC1 [Amuvatinib] (2.5 µM) 0
CC(=O)O[C@@H]1[C@@H](OC(C)=O)[C@@H](O)[C@H](Oc2c(-c3ccc(O)cc3)oc3cc(O)cc(O)c3c2=O)O[C@H]1C (10 µM) 0
CC1=CC(=O)C(C(C)C)=C/C1=N/OC(=O)c1ccccc1C [Poloxin] (2.5 µM) 0
CO[C@@H]1[C@H](N(C)C(=O)c2ccccc2)C[C@H]2O[C@]1(C)n1c3ccccc3c3c4c(c5c6ccccc6n2c5c31)C(=O)NC4 [Midostaurin] (2.5 µM) 0
Fc1ccc(Cl)cc1-c1nc(Nc2ccncc2)c2nccnc2n1 (10 µM) 0
CN1CCC(Nc2ccc(C(=O)Nc3cc(-c4ccc5c(c4)OCO5)[nH]n3)cc2)CC1 (10 µM) 0
CN1CCC(Nc2nc(Nc3ccc(Oc4ccccc4)cc3)c3c(=O)[nH]cc(Br)c3n2)CC1 (2.5 µM) 0
O=C(COc1ccc(Cl)cc1)NC1CCC(NC(=O)COc2ccc(Cl)cc2)CC1 (stereo not drawn) [ISRIB (trans-isomer)] (10 µM) 0
Cc1ccc(C2CC(=O)NC(SCC(=O)Nc3nccs3)=C2C#N)cc1 (centres undefined) [Necrostatin-34] (10 µM) 0
CCCCNc1ncc(C(=O)NCc2ccc(-n3ccnc3)cc2)c(NC2CCC(O)CC2)n1 (centres undefined) (10 µM) 0
O=C1NC(=O)C(Cc2c[nH]c3c(Cl)cccc23)N1 (centres undefined) [Necroptosis-IN-1] (10 µM) 0
O=C1C=CC2=C3c4cc(O)c(O)cc4CC3(O)COC2=C1O (centres undefined) [Hematein] (10 µM) 0
NC(=O)c1cnc(N[C@@H]2CCCC[C@@H]2N)nc1Nc1cccc(-n2nccn2)c1 (2.5 µM) 0
COc1cc2nc(-c3cc(F)ccc3O)nc(N[C@@H]3CNC[C@H]3C(C)(C)O)c2cc1OC (2.5 µM) 0
CN1CCN(Cc2ccc(-c3cn(C4CCC(O)CC4)c4nc(NCCC5CC5)ncc34)cc2)CC1 (centres undefined) (2.5 µM) 0
O=S(=O)(c1ccc(O)cc1O)N1Cc2cc(O)cc(O)c2C1 (10 µM) 0

Three successive entries already listed:
kinase-Nluc reporter destabilization hit call, inactive:
CCNC(=O)Nc1ccc(-c2nc3c(c(N4CCOC[C@@H]4C)n2)CCN(C2COC2)C3)cc1 (2.5 µM) 0
COc1cc2ncnc(Nc3cc(Br)c(O)c(Br)c3)c2cc1OC (2.5 µM) 0
Nc1ccc(-c2nc3ccc(-c4nc5ccc(N)cc5[nH]4)cc3[nH]2)cc1 (10 µM) 0
